# Results published in patent US9512090B2, “Tetrazolinone compound and use thereof” (Sumitomo Chemical Company, Limited, priority 2013, dated 2016).
# Some results were stated once for a whole list of compounds, not compound by compound. At least one structure is not confirmed: it was looked up by name or label, or the drawing left a doubt.
# Experiments:
# [1] = system: rice blast fungus (Magnaporthe grisea); format: in vivo; settings: 500 ppm spray on rice (NIHONBARE); in contact with infected seedlings 6 days, high humidity
# [2] = system: barley net blotch fungus (Pyrenophora teres); assay: Test Example 3: barley net blotch control by foliar spray on potted barley; format: in vivo; settings: 500 ppm spray on barley (NISHINOHOSHI); inoculated after 2 days; assessed after 3 + 7 days
SMILES,lesion areas on the treated plant with respect to the lesion area on the non-treated plant [1] [%],area of lesion spots on the treated plant relative to that on an untreated plant [2] [%]
Cc1cc(-c2ccccc2F)ccc1OCc1c(C)cccc1-n1nnn(C)c1=O [compound 4],≤ 30,≤ 30
COc1ccccc1-c1ccc(OCc2c(OC)cccc2-n2nnn(C)c2=O)c(C)c1 [compound 20],≤ 30,≤ 30
COc1cccc(-n2nnn(C)c2=O)c1COc1ccc(-c2ccc(C)cc2)cc1C [compound 22],≤ 30,≤ 30
COc1cccc(-n2nnn(C)c2=O)c1COc1ccc(-c2cccc(F)c2)cc1C [compound 24],≤ 30,≤ 30
CCc1cccc(-n2nnn(C)c2=O)c1COc1ccc(-c2cccc(Cl)c2)cc1C [compound 25],≤ 30,≤ 30
Cc1cc(-c2cccc(Cl)c2)c(C)cc1OCc1c(C)cccc1-n1nnn(C)c1=O [compound 32],≤ 30,≤ 30
COc1cccc(-n2nnn(C)c2=O)c1COc1ccc(Oc2ccccc2F)cc1C [compound 61],≤ 30,≤ 30
Cc1cc(Oc2ccccc2)ccc1OCc1c(C)cccc1-n1nnn(C)c1=O [compound 62],≤ 30,≤ 30
Cc1cc(Oc2ccccc2C)ccc1OCc1c(C)cccc1-n1nnn(C)c1=O [compound 63],≤ 30,≤ 30
Cc1cccc(Oc2ccc(OCc3c(C)cccc3-n3nnn(C)c3=O)c(C)c2)c1 [compound 64],≤ 30,≤ 30
Cc1ccc(Oc2ccc(OCc3c(C)cccc3-n3nnn(C)c3=O)c(C)c2)cc1 [compound 65],≤ 30,≤ 30
COc1ccccc1Oc1ccc(OCc2c(C)cccc2-n2nnn(C)c2=O)c(C)c1 [compound 68],≤ 30,≤ 30
CCC(=O)Nc1ccc(OCc2c(C)cccc2-n2nnn(C)c2=O)c(C)c1 [compound 99],,≤ 30
C=C(C)c1ccc(OCc2c(OC)cccc2-n2nnn(C)c2=O)c(C)c1 [compound 103],,≤ 30
COc1cccc(-n2nnn(C)c2=O)c1COc1ccc(C2=CCCCC2)cc1C [compound 104],,≤ 30
CCC=C(C)c1ccc(OCc2c(C)cccc2-n2nnn(C)c2=O)c(C)c1 [compound 105],,≤ 30
CC(=O)Oc1ccc(OCc2c(C)cccc2-n2nnn(C)c2=O)c(C)c1 [compound 107],,≤ 30
CCc1cc(-c2ccccc2)ccc1OCc1c(C)cccc1-n1nnn(C)c1=O [compound 113],,≤ 30
Cc1cccc(-n2nnn(C)c2=O)c1COc1cc(F)c(-c2ccccc2)c(F)c1 [compound 116],,≤ 30
Cc1cccc(-n2nnn(C)c2=O)c1COc1ccc(-c2ccccc2)c(C(F)(F)F)c1 [compound 117],,≤ 30
Cc1ccccc1-c1ccc(OCc2c(C)cccc2-n2nnn(C)c2=O)cc1C(F)(F)F [compound 118],,≤ 30

SMILES,lesion areas on the treated plant with respect to the lesion area on the non-treated plant [1] [%],area of lesion spots on the treated plant relative to that on an untreated plant [2] [%]
COc1cccc(-c2cc(C)c(OCc3c(C)cccc3-n3nnn(C)c3=O)cc2C)c1 [compound 120],,≤ 30
CCc1cc(OCc2c(C)cccc2-n2nnn(C)c2=O)ccc1-c1ccccc1 [compound 126],,≤ 30
COc1ccccc1-c1ccc(OCc2c(C)cccc2-n2nnn(C)c2=O)cc1C [compound 131],,≤ 30
COc1ccccc1-c1ccc(OCc2c(C)cccc2-n2nnn(C)c2=O)c(C(F)(F)F)c1 [compound 133],,≤ 30
CCc1cccc(-n2nnn(C)c2=O)c1COc1cc(C)c(-c2ccccc2OC)cc1C [compound 138],,≤ 30
COc1cccc(-n2nnn(C)c2=O)c1COc1cc(C)c(-c2ccccc2)cc1C [compound 141],,≤ 30
COc1ccccc1-c1cc(C)c(OCc2c(OC)cccc2-n2nnn(C)c2=O)cc1C [compound 142],,≤ 30
Cc1ccc(-c2ccc(OCc3c(C)cccc3-n3nnn(C)c3=O)c(C)c2)cc1 [compound 146],,≤ 30
Cc1cccc(-n2nnn(C)c2=O)c1COc1c(F)c(F)c(-c2ccccc2)c(F)c1F [compound 147],,≤ 30
Cc1cccc(-n2nnn(C)c2=O)c1COc1c(F)cc(-c2ccccc2)cc1F [compound 148],,≤ 30
COc1cccc(-n2nnn(C)c2=O)c1COc1ccc(-c2c(F)c(F)cc(F)c2F)cc1C [compound 149],,≤ 30
COc1cccc(-n2nnn(C)c2=O)c1COc1ccc(-c2c(F)c(F)c(F)c(F)c2F)cc1C [compound 150],,≤ 30
Cc1cc(-c2ccc(F)cc2F)c(C)cc1OCc1c(C)cccc1-n1nnn(C)c1=O [compound 151],,≤ 30
Cc1cc(-c2ccccc2)c(F)cc1OCc1c(C)cccc1-n1nnn(C)c1=O [compound 152],,≤ 30
COc1ccccc1-c1cc(C)c(OCc2c(C)cccc2-n2nnn(C)c2=O)cc1F [compound 153],,≤ 30
COc1cc(F)c(C)cc1-c1cc(C)c(OCc2c(C)cccc2-n2nnn(C)c2=O)cc1C [compound 154],,≤ 30
Cc1cccc(-c2cc(C)c(OCc3c(C)cccc3-n3nnn(C)c3=O)cc2C)c1 [compound 156],,≤ 30
Cc1cc(Oc2ccccc2)ccc1OCc1c(Cl)cccc1-n1nnn(C)c1=O [compound 157],,≤ 30
Cc1cc(Oc2ccccc2)c(C)cc1OCc1c(C)cccc1-n1nnn(C)c1=O [compound 158],,≤ 30
Cc1cc(Oc2ccccc2C#N)c(C)cc1OCc1c(C)cccc1-n1nnn(C)c1=O [compound 160],,≤ 30
